Test results reported in PubChem BioAssay AID328 (DTP/NCI, 2004).
The list shows only some results of the screen, not a fair sample: its compounds were picked by chemical class. Other doses and runs of a compound may be missing. T/C is the treated group as % of the vehicle group. Where survival is the endpoint, this PubChem deposit counts one and a half times the control or more as active, and values a quarter to a half above the control carry no call in these data; other NCI protocols may use other cut-offs. Some T/C values are marked as having no survivor count here; that says nothing about deaths at the dose. Schedule codes are those of the source, taken here to give the interval after Q, in days (D) or hours (H), and the number of doses after X. Some doses were run more than once; their values stand side by side, smallest first.

Tested on: BDF1 mice, P388 leukemia ip, median survival T/C
Test: NCI In Vivo Anticancer Drug Screen. Data for tumor model P388 Leukemia (intraperitoneal) in B6D2F1 (BDF1) mice
Conditions: T/C endpoint: median survival time, higher T/C = longer survival
Procedure, shortened: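 Survival ratio, drug arm over vehicle arm, in mice with a transplanted tumour.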

## O=C(O)Cc1c[nH]c2ccc(N(CCCl)CCCl)cc12
dose: 0.44 mg/kg/injection, schedule: Q01DX009 (ip), vehicle: saline with Tween-80
  T/C: 163 % of control [survivor count not shown]
dose: 0.66 mg/kg/injection, schedule: Q01DX009 (ip), vehicle: saline with Tween-80
  T/C: 179 % of control [survivor count not shown]
dose: 0.88 mg/kg/injection, schedule: Q04DX003 (ip), vehicle: saline with Tween-80
  T/C: 112 % of control [survivor count not shown]
dose: 1.0 mg/kg/injection, schedule: Q01DX009 (ip), vehicle: saline with Tween-80
  T/C: 208 % of control [survivor count not shown]
dose: 1.32 mg/kg/injection, schedule: Q01DX009 (ip), vehicle: saline with Tween-80
  T/C: 168 % of control [survivor count not shown]
dose: 1.32 mg/kg/injection, schedule: Q04DX003 (ip), vehicle: saline with Tween-80
  T/C: 125 % of control [survivor count not shown]
dose: 1.5 mg/kg/injection, schedule: Q01DX009 (ip), vehicle: saline with Tween-80
  T/C: 245 % of control [survivor count not shown]
dose: 2.0 mg/kg/injection, schedule: Q01DX009 (ip), vehicle: saline with Tween-80
  T/C: 209 % of control [survivor count not shown]
dose: 2.0 mg/kg/injection, schedule: Q04DX003 (ip), vehicle: saline with Tween-80
  T/C: 125 % of control [survivor count not shown]
dose: 2.6 mg/kg/injection, schedule: Q04DX003 (ip), vehicle: saline with Tween-80
  T/C: 204 % of control [survivor count not shown]
dose: 3.0 mg/kg/injection, schedule: Q01DX009 (ip), vehicle: saline with Tween-80
  T/C: 250 % of control [survivor count not shown]
dose: 3.0 mg/kg/injection, schedule: Q04DX003 (ip), vehicle: saline with Tween-80
  T/C: 150 % of control [survivor count not shown]
dose: 4.0 mg/kg/injection, schedule: Q04DX003 (ip), vehicle: saline with Tween-80
  T/C: 200 % of control [survivor count not shown]
dose: 4.5 mg/kg/injection, schedule: Q01DX009 (ip), vehicle: saline with Tween-80
  T/C: 240 % of control [survivor count not shown]
dose: 6.0 mg/kg/injection, schedule: Q04DX003 (ip), vehicle: saline with Tween-80
  T/C: 254 % of control [survivor count not shown]
dose: 6.25 mg/kg/injection, schedule: Q04DX003 (ip), vehicle: saline with Tween-80
  T/C: 186 % of control [survivor count not shown]
dose: 9.0 mg/kg/injection, schedule: Q04DX003 (ip), vehicle: saline with Tween-80
  T/C: 86 % of control [survivor count not shown]
dose: 12.5 mg/kg/injection, schedule: Q04DX003 (ip), vehicle: saline with Tween-80
  T/C: 118 % of control [survivor count not shown]

## NC(Cc1ccc(O)c(N(CCCl)CCCl)c1)C(=O)O (stereo not given)
dose: 0.05 mg/kg/injection, schedule: Q01DX010 (ip), vehicle: saline
  T/C: 245 % of control [survivor count not shown]
dose: 0.1 mg/kg/injection, schedule: Q01DX010 (ip), vehicle: saline
  T/C: 255 % of control [survivor count not shown]
dose: 0.2 mg/kg/injection, schedule: Q01DX010 (ip), vehicle: saline
  T/C: 300 % of control [survivor count not shown]
dose: 0.4 mg/kg/injection, schedule: Q01DX010 (ip), vehicle: saline
  T/C: 300 % of control [survivor count not shown]
dose: 0.66 mg/kg/injection, schedule: Q01DX010 (ip), vehicle: saline
  T/C: 300 % of control [survivor count not shown]
dose: 1.0 mg/kg/injection, schedule: Q01DX010 (ip), vehicle: saline
  T/C: 300 % of control [survivor count not shown]
dose: 1.5 mg/kg/injection, schedule: Q01DX010 (ip), vehicle: saline
  T/C: 127 % of control [survivor count not shown]
dose: 2.25 mg/kg/injection, schedule: Q01DX010 (ip), vehicle: saline
  T/C: 90 % of control [survivor count not shown]
dose: 2.0 micrograms/kg/injection, schedule: Q01DX010 (ip), vehicle: saline
  T/C: 270 % of control [survivor count not shown]
dose: 5.0 micrograms/kg/injection, schedule: Q01DX010 (ip), vehicle: saline
  T/C: 295 % of control [survivor count not shown]
dose: 10.0 micrograms/kg/injection, schedule: Q01DX010 (ip), vehicle: saline
  T/C: 275 % of control [survivor count not shown]
dose: 20.0 micrograms/kg/injection, schedule: Q01DX010 (ip), vehicle: saline
  T/C: 300 % of control [survivor count not shown]

## O=c1[nH]cc(CN(CCCl)CCCl)c(=O)[nH]1
dose: 0.25 mg/kg/injection, schedule: Q01DX009 (ip), vehicle: saline
  T/C: 190 % of control [survivor count not shown]
dose: 0.5 mg/kg/injection, schedule: Q01DX009 (ip), vehicle: saline
  T/C: 218 % of control [survivor count not shown]

## Cc1ccc(C(=O)O)cc1N(CCCl)CCCl
dose: 0.1 mg/kg/injection, schedule: Q01DX009 (ip), vehicle: Klucel (hydroxypropylcellulose) (HPC)
  T/C: 100 % of control [survivor count not shown]
dose: 0.2 mg/kg/injection, schedule: Q01DX009 (ip), vehicle: Klucel (hydroxypropylcellulose) (HPC)
  T/C: 110 % of control [survivor count not shown]
dose: 0.3 mg/kg/injection, schedule: Q01DX009 (ip), vehicle: Klucel (hydroxypropylcellulose) (HPC)
  T/C: 130 % of control [survivor count not shown]
dose: 0.37 mg/kg/injection, schedule: Q01DX009 (ip), vehicle: Klucel (hydroxypropylcellulose) (HPC)
  T/C: 119 % of control [survivor count not shown]
dose: 0.5 mg/kg/injection, schedule: Q01DX009 (ip), vehicle: Klucel (hydroxypropylcellulose) (HPC)
  T/C: 134 % of control [survivor count not shown]
dose: 0.75 mg/kg/injection, schedule: Q01DX009 (ip), vehicle: Klucel (hydroxypropylcellulose) (HPC)
  T/C: 130 [survivor count not shown] and 147 % of control [survivor count not shown]
dose: 1.1 mg/kg/injection, schedule: Q01DX009 (ip), vehicle: Klucel (hydroxypropylcellulose) (HPC)
  T/C: 147 % of control [survivor count not shown]
dose: 1.5 mg/kg/injection, schedule: Q01DX009 (ip), vehicle: Klucel (hydroxypropylcellulose) (HPC)
  T/C: 157 % of control [survivor count not shown]
dose: 1.5 mg/kg/injection, schedule: Q04DX003 (ip), vehicle: Klucel (hydroxypropylcellulose) (HPC)
  T/C: 137 % of control [survivor count not shown]
dose: 1.7 mg/kg/injection, schedule: Q01DX009 (ip), vehicle: Klucel (hydroxypropylcellulose) (HPC)
  T/C: 135 % of control [survivor count not shown]
dose: 2.6 mg/kg/injection, schedule: Q01DX009 (ip), vehicle: Klucel (hydroxypropylcellulose) (HPC)
  T/C: 140 % of control [survivor count not shown]
dose: 3.0 mg/kg/injection, schedule: Q01DX009 (ip), vehicle: Klucel (hydroxypropylcellulose) (HPC)
  T/C: 192 % of control [survivor count not shown]
dose: 3.0 mg/kg/injection, schedule: Q04DX003 (ip), vehicle: Klucel (hydroxypropylcellulose) (HPC)
  T/C: 141 % of control [survivor count not shown]
dose: 4.0 mg/kg/injection, schedule: Q01DX009 (ip), vehicle: Klucel (hydroxypropylcellulose) (HPC)
  T/C: 175 % of control [survivor count not shown]
dose: 4.4 mg/kg/injection, schedule: Q01DX009 (ip), vehicle: Klucel (hydroxypropylcellulose) (HPC)
  T/C: 183 % of control [survivor count not shown]
dose: 6.0 mg/kg/injection, schedule: Q04DX003 (ip), vehicle: Klucel (hydroxypropylcellulose) (HPC)
  T/C: 195 % of control [survivor count not shown]
dose: 6.3 mg/kg/injection, schedule: Q01DX009 (ip), vehicle: Klucel (hydroxypropylcellulose) (HPC)
  T/C: 125 % of control [survivor count not shown]
dose: 6.6 mg/kg/injection, schedule: Q01DX009 (ip), vehicle: Klucel (hydroxypropylcellulose) (HPC)
  T/C: 191 % of control [survivor count not shown]
dose: 8.0 mg/kg/injection, schedule: Q04DX003 (ip), vehicle: Klucel (hydroxypropylcellulose) (HPC)
  T/C: 163 % of control [survivor count not shown]
dose: 12.0 mg/kg/injection, schedule: Q04DX003 (ip), vehicle: Klucel (hydroxypropylcellulose) (HPC)
  T/C: 220 [survivor count not shown] and 250 % of control [survivor count not shown]
dose: 12.5 mg/kg/injection, schedule: Q04DX003 (ip), vehicle: Klucel (hydroxypropylcellulose) (HPC)
  T/C: 213 [survivor count not shown] and 231 % of control [survivor count not shown]
dose: 18.0 mg/kg/injection, schedule: Q04DX003 (ip), vehicle: Klucel (hydroxypropylcellulose) (HPC)
  T/C: 183 % of control [survivor count not shown]
dose: 25.0 mg/kg/injection, schedule: Q04DX003 (ip), vehicle: Klucel (hydroxypropylcellulose) (HPC)
  T/C: 100 % of control [survivor count not shown]
